Results are given in words; binding and its absence hold for the method and conditions named. Binding seen in cells or lysates may run through a third protein. Some results given as binding are weak or reduced against the parent protein; the word gives no strength. Tags and fused reporters may be left off the sequences shown.
Molecular target: T1, CD146-Flag (UniProt Q8R2Y2)
T1 sequence: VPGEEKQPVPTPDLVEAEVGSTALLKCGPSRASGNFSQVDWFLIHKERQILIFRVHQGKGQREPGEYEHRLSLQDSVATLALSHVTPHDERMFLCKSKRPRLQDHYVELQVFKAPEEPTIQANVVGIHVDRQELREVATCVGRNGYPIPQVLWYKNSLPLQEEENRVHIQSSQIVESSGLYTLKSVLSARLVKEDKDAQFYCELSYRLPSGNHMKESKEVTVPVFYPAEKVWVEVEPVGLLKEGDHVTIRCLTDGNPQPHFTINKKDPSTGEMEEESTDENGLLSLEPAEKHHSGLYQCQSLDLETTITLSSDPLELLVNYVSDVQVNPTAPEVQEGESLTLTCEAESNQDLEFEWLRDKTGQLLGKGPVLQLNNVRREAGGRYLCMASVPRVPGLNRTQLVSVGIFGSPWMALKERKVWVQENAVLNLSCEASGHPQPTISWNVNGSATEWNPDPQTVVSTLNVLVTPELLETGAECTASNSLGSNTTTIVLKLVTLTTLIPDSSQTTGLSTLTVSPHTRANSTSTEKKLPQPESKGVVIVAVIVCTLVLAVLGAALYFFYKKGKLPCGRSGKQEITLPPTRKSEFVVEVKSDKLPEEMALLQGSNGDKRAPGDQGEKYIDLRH
Experiment: co-IP; immunoprecipitation from bEnd.3 and T cells; Galectin-9 detected by Western blotting

By UniProt entry, the sequences of proteins in these tests, tags left out.
UniProt O08573: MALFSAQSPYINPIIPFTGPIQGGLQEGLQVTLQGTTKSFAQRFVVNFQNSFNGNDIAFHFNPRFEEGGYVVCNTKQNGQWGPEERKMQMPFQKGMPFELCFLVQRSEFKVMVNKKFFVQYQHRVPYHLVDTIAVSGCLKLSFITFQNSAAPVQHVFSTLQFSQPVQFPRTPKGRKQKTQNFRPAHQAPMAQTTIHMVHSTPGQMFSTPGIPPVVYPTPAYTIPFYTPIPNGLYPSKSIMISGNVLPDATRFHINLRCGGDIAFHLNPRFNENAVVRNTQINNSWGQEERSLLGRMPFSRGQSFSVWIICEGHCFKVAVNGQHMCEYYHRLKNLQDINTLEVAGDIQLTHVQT

binding: binds
Substance: Galectin-9 (from UniProt O08573 1-353)
